Laboratory results published in patent US4190646A (Sloan-Kettering Institute for Cancer Research, priority 1979, dated 1980).
Strings that start with PEPTIDE1 are HELM notation: dots part the residues, brackets hold end groups and non-standard residues.

Experiment: Boc solid-phase peptide synthesis; chloromethylated resin; dicyclohexyl carbodiimide
Settings: whole synthesis, scale 2 m moles

## PEPTIDE1{R.K.D.V.Y}$$$$V2.0
  final purity (method not given): 94%
